For at least one entry, the source does not settle the construct or the ends of the probe. At least one verdict was read from the data and is not stated in words by the source.
Key:
Experiment in all cases: EMSA
[1] = test system: RAD-51f (6-FAM-labelled RAD-51) (Caenorhabditis elegans); details: 2 mM ATP, 2 mM Mg2+, WT level of DNA binding, EMSA 49-mer: 35 mM Tris-HCl pH 7.5, 50 mM KCl, 1 mM DTT, 2 mM MgCl2, 2 mM ATP, 25 C, EMSA 60-mer: 20 mM Tris-HCl pH 7.5, 8% glycerol, 50 mM Na acetate, recombinant protein, protein details: 6-FAM (succinimidyl ester), SUMO fusion vector, label: 5'-Cy5 or 5'-FAM versions listed in Table S1, single-stranded DNA
[2] = test system: RAD-51 (Caenorhabditis elegans); details: 2 mM ATP, 2 mM Mg2+, EMSA 49-mer: 35 mM Tris-HCl pH 7.5, 50 mM KCl, 1 mM DTT, 2 mM MgCl2, 2 mM ATP, 25 C, EMSA 60-mer: 20 mM Tris-HCl pH 7.5, 8% glycerol, 50 mM Na acetate, recombinant protein, protein details: SUMO fusion vector (pET-SUMO), label: 5'-Cy5 or 5'-FAM versions listed in Table S1, single-stranded DNA
[3] = test system: RAD-51 + RFS-1 (of RFS-1/RIP-1) + RIP-1-3xFLAG-ybbr(A647); details: 2 mM ATP, binding of RFS-1/RIP-1(A647) to RAD-51 filament, EMSA 49-mer: 35 mM Tris-HCl pH 7.5, 50 mM KCl, 1 mM DTT, 2 mM MgCl2, 2 mM ATP, 25 C, EMSA 60-mer: 20 mM Tris-HCl pH 7.5, 8% glycerol, 50 mM Na acetate, recombinant protein, label: 5'-Cy5 or 5'-FAM versions listed in Table S1, single-stranded DNA

Chains of the proteins cited; added tags and fusions are not shown. Chains listed by the source or under a name are the forms on record and can include a tag or linker.
RAD-51f (6-FAM-labelled RAD-51) (Caenorhabditis elegans), one chain, as listed by the source: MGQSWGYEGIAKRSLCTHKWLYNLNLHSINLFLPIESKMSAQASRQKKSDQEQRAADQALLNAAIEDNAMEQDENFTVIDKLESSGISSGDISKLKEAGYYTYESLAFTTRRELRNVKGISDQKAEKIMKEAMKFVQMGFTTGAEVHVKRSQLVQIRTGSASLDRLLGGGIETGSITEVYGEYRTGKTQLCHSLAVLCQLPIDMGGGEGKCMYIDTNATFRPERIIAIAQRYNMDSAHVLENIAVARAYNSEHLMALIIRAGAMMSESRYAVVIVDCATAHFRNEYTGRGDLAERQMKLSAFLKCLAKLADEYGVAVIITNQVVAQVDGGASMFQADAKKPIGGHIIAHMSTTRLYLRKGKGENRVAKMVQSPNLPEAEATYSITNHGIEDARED

Measured: binding result

AGCTACCATGCCTGCACGAATTAAGCAATTCGTAATCATGGTCATAGCT [49-mer]
binds: all assays above

From article PMC7941204
